In PMC8461901 one finds binding data, which are given here for one substance.

The chains behind the UniProt entries cited, without tags or fusion partners.
UniProt P18085: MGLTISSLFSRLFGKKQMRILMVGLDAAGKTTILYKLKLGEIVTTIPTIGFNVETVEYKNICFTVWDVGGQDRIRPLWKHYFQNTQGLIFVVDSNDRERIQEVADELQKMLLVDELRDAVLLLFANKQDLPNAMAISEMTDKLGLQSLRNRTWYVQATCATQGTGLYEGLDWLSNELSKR
UniProt Q93009: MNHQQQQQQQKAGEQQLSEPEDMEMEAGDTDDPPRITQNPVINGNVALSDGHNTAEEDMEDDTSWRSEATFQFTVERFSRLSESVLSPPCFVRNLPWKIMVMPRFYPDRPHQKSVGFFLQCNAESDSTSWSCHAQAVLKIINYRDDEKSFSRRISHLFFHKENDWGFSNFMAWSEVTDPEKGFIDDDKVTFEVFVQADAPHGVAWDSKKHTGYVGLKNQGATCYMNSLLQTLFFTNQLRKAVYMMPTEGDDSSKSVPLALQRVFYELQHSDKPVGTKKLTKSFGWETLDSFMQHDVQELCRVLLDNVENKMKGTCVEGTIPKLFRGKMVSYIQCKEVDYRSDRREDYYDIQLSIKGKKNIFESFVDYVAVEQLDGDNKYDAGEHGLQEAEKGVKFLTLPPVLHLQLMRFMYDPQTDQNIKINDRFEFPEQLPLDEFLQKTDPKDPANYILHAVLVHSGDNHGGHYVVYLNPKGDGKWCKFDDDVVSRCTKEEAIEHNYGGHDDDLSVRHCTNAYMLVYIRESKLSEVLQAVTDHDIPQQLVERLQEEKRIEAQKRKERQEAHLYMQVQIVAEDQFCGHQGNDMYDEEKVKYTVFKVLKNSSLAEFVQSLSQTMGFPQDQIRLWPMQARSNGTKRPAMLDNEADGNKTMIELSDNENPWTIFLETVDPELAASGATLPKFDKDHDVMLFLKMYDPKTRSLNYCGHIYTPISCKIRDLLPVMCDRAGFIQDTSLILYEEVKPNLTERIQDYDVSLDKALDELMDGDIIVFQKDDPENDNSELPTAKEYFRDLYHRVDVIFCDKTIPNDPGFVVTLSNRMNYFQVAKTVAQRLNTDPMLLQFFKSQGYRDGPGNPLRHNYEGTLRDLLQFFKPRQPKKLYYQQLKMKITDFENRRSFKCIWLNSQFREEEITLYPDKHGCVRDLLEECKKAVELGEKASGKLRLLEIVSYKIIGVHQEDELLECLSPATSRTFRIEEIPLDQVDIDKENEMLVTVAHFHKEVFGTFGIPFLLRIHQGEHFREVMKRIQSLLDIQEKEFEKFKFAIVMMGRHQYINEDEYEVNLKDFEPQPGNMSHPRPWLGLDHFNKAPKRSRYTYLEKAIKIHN

The test deals with ADP-ribosylation factor 4 (human (endogenous in SHG-140)) (UniProt P18085). Kind of test: co-IP; anti-ARF4 added to SHG-140 cell protein extracts, protein A/G magnetic beads overnight at 4 °C, washed three times with lysis buffer, immunoblot.

Results are given in words; binding and its absence hold for the method and conditions named. In cells and extracts the contact can be indirect. Some entries that bind do so weakly or less than the wild type.

Take “Ubiquitin-specific protease 7 (from UniProt Q93009 1-1102) (enzyme)”: the binding entry was “binds”.
